Assay results as given in PubChem BioAssay AID296 (DTP/NCI, 2004).
The list does not hold the whole screen: it is rich in T/C values a quarter to a half above the control, in often repeated tests (any T/C) and in doses without a T/C. Further doses and runs are listed elsewhere. T/C: endpoint of the treated group in % of that of the vehicle group. Schedules are NCI's codes, taken here to give the interval after Q, in days (D) or hours (H), and the number of doses after X. Some T/C values carry the count of animals alive at the toxicity check (mostly the fifth day); where none is given, no animal had died by that day. Some doses have a count of surviving animals in place of a T/C: the source holds a T/C of zero for them, seemingly a mark for toxic or unscored doses. Counts of survivors are from the toxicity check (mostly the fifth day) where no day follows; animals may have died later. Some entries hold several experiments; the values are given in rising order.

System: MX-1 breast xenograft, nude mice, tumor weight T/C
Assay: NCI In Vivo Anticancer Drug Screen. Data for tumor model Human Mammary Carcinoma MX-1 Xenograft (intrarenal inoculation) in NU/NU Swiss (nude) mice
Conditions: T/C endpoint: mean tumor weight change, higher T/C = larger tumour; for T/C: evaluated on day 11
Procedure: The antitumor activity of compounds was measured in mice bearing transplantable tumors. Survival or tumor size were measured and the results are expressed as the measurement made in the treated group (T) divided by the measurement made in the vehicle treated control group (C). The tumor model used in this assay is Human Mammary Carcinoma MX-1 Xenograft (intrarenal inoculation) in NU/NU Swiss (nude) mice

[1] = dose: 600.0 mg/kg/injection, schedule: Q04DX003 (sc), vehicle: saline with Tween-80
[2] = dose: 200.0 mg/kg/injection, schedule: Q01DX010 (sc), vehicle: saline
[3] = dose: 400.0 mg/kg/injection, schedule: Q01DX010 (sc), vehicle: saline
[4] = dose: 800.0 mg/kg/injection, schedule: Q01DX010 (sc), vehicle: saline
[5] = dose: 150.0 mg/kg/injection, schedule: Q04DX003 (sc), vehicle: Klucel (hydroxypropylcellulose) (HPC)
[6] = dose: 16.0 mg/kg/injection, schedule: Q01DX010 (sc), vehicle: saline
[7] = dose: 32.0 mg/kg/injection, schedule: Q01DX010 (sc), vehicle: saline

**Q.** With `O=S(=O)(N=N/C=C1\C=CC=CN1O)c1cccs1` as the compound, how does the survivor count [1] read?
**A.** Its survivor count is 0 of 6 on day 11.

**Q.** With `Nc1ccc(C(OC(=O)c2cc3ccccc3c(Cc3c(O)c(C(=O)OC(c4ccc(N)cc4)(c4ccc(N)cc4)c4ccc(N)cc4)cc4ccccc34)c2O)(c2ccc(N)cc2)c2ccc(N)cc2)cc1` as the compound, how does the survivor count (dose: 576.0 mg/kg/injection, schedule: Q04DX003 (sc), vehicle: saline with Tween-80) read?
**A.** Its survivor count is 3 of 6 on day 11.

**Q.** Which results are given for `CCOC(=O)CNC(=O)CCCCSc1ncnc2nc[nH]c12`?
**A.** T/C (dose: 300.0 mg/kg/injection, schedule: Q04DX003 (sc), vehicle: saline with Tween-80): 137 % of control; T/C [1]: 125 % of control

**Q.** How did the survivor count (dose: 25.0 micrograms/kg/injection, schedule: Q01DX010 (sc), vehicle: saline + alcohol) turn out when `COc1cc2cc(c1Cl)N(C)C(=O)CC(OC(=O)C(C)C)C1(C)OC1C(C)C1CC(O)(NC(=O)O1)C(OC)/C=C/C=C(C)C2` (stereo not drawn) was run?
**A.** The survivor count was 0 of 2 on day 11.

**Q.** And the survivor count (dose: 50.0 micrograms/kg/injection, schedule: Q01DX010 (sc), vehicle: saline + alcohol)?
**A.** Its survivor count is 1 of 3 on day 11.

**Q.** And the survivor count (dose: 100.0 micrograms/kg/injection, schedule: Q01DX010 (sc), vehicle: saline + alcohol)?
**A.** Its survivor count is 1 of 3 on day 11.

**Q.** What about the survivor count (dose: 200.0 micrograms/kg/injection, schedule: Q01DX010 (sc), vehicle: saline + alcohol) of the same compound?
**A.** Its survivor count is 0 of 3 on day 11.

**Q.** `O=C(O)CC(NC(=O)CP(=O)(O)O)C(=O)O` (stereo not drawn) was tested. Which T/C (dose: 25.0 mg/kg/injection, schedule: Q01DX010 (sc), vehicle: saline) did it give?
**A.** Its T/C is 133 % of control [2 of 2 alive on day 11].

**Q.** And the survivor count [2]?
**A.** Its survivor count is 1 of 3 on day 11.

**Q.** What about the survivor count [3] of the same compound?
**A.** The survivor count was 0 of 3 on day 11.

**Q.** And the survivor count [4]?
**A.** Its survivor count is 0 of 3 on day 11.

**Q.** For `CNC(=O)/C=C/C1=CN2C(=O)c3ccc(C)c(O)c3NC(OC)C2C1` (stereo not drawn), which survivor count (dose: 0.8 mg/kg/injection, schedule: Q04DX003 (ip), vehicle: saline) is on record?
**A.** The survivor count was 1 of 6 on day 11 and 2 of 6 on day 11.

**Q.** What about the survivor count (dose: 1.6 mg/kg/injection, schedule: Q04DX003 (ip), vehicle: saline) of the same compound?
**A.** The survivor count was 0 of 6 on day 11.

**Q.** And the survivor count (dose: 1.6 mg/kg/injection, schedule: Q04DX003 (sc), vehicle: saline)?
**A.** The survivor count was 2 of 6 on day 11.

**Q.** What about the survivor count (dose: 3.2 mg/kg/injection, schedule: Q04DX003 (ip), vehicle: saline) of the same compound?
**A.** Its survivor count is 0 of 6 on day 11.

**Q.** And the survivor count (dose: 3.2 mg/kg/injection, schedule: Q04DX003 (sc), vehicle: saline)?
**A.** Its survivor count is 0 of 6 on day 11.

**Q.** `CC(C)(C)c1ccc(CN2CCN(C(c3ccccc3)c3ccc(Cl)cc3)CC2)cc1` (stereo not drawn) was tested. Which T/C [5] did it give?
**A.** The T/C was 131 % of control.

**Q.** Which survivor count (dose: 200.0 mg/kg/injection, schedule: Q01DX010 (sc), vehicle: saline with Tween-80) does the source give for `CC1=C(/C=C/C(C)=C/C=C/C(C)=C/C(=O)O)C(C)(C)CCC1` here?
**A.** The survivor count was 0 of 3 on day 11.

**Q.** Which results are given for `Nc1nc([Se])c2ncn(C3OC(CO)C(O)C3O)c2n1` (stereo not drawn)?
**A.** T/C (dose: 2.0 mg/kg/injection, schedule: Q01DX010 (ip), vehicle: saline): 135 % of control; T/C (dose: 2.0 mg/kg/injection, schedule: Q01DX010 (sc), vehicle: saline): 137 % of control; T/C (dose: 4.0 mg/kg/injection, schedule: Q01DX010 (ip), vehicle: saline): 140 % of control; T/C (dose: 6.66 mg/kg/injection, schedule: Q04DX003 (sc), vehicle: saline): 142 % of control; survivor count (dose: 16.0 mg/kg/injection, schedule: Q01DX010 (ip), vehicle: saline): 0 of 3 on day 11; survivor count [6]: 0 of 3 on day 11 and 1 of 3 on day 11; survivor count [7]: 0 of 3 on day 11; survivor count (dose: 53.3 mg/kg/injection, schedule: Q04DX003 (sc), vehicle: saline): 0 of 2 on day 11; survivor count (dose: 64.0 mg/kg/injection, schedule: Q01DX010 (sc), vehicle: saline): 0 of 3 on day 11

**Q.** For `N#CC(=C1C=CC(=NO)C=C1)c1ccc(Cl)cc1`, which T/C (dose: 1200.0 mg/kg/injection, schedule: Q04DX003 (sc), vehicle: saline with Tween-80) is on record?
**A.** The T/C was 128 % of control.

**Q.** What does the source list for `CC1Oc2cc3c(-c4c(O)cc(O)c5c(O)c6c(cc45)OC(C)C(C)C6=O)c(O)cc(O)c3c(O)c2C(=O)C1C` (stereo not drawn)?
**A.** survivor count (dose: 18.75 mg/kg/injection, schedule: Q04DX003 (ip), vehicle: suspension in saline): 0 of 6 on day 11; survivor count (dose: 37.5 mg/kg/injection, schedule: Q04DX003 (ip), vehicle: suspension in saline): 0 of 6 on day 11; survivor count (dose: 75.0 mg/kg/injection, schedule: Q04DX003 (ip), vehicle: suspension in saline): 0 of 6 on day 11

**Q.** Which T/C (dose: 2400.0 mg/kg/injection, schedule: Q04DX003 (sc), vehicle: Klucel (hydroxypropylcellulose) (HPC)) does the source give for `COc1cc(OC)c(OC)cc1/C=C\c1ccnc2ccccc12` here?
**A.** The T/C was 137 % of control.

**Q.** How did the survivor count (dose: 480.0 micrograms/kg/injection, schedule: Q01DX010 (sc), vehicle: saline) turn out when `CSC1SCC2C(=O)N(C)C(C(C)C)C(=O)OCC(NC(=O)c3cnc4ccccc4n3)C(=O)NC(C)C(=O)N(C)C1C(=O)N(C)C(C(C)C)C(=O)OCC(NC(=O)c1cnc3ccccc3n1)C(=O)NC(C)C(=O)N2C` (stereo not drawn) was run?
**A.** The survivor count was 0 of 3 on day 11.

**Q.** What does the source list for `C(CSC1=NCCN1)CSC1=NCCN1`?
**A.** T/C (dose: 100.0 mg/kg/injection, schedule: Q01DX010 (sc), vehicle: saline): 133 % of control; survivor count [2]: 0 of 3 on day 11; survivor count [3]: 0 of 3 on day 11

**Q.** For `O=c1cnn(C2OC(CO)C(O)C2O)c(=O)[nH]1` (stereo not drawn), which survivor count [4] is on record?
**A.** The survivor count was 1 of 3 on day 11.

**Q.** What about the survivor count (dose: 1600.0 mg/kg/injection, schedule: Q01DX010 (sc), vehicle: saline) of the same compound?
**A.** The survivor count was 0 of 3 on day 11.

**Q.** How did the survivor count (dose: 25.0 mg/kg/injection, schedule: Q01DX008 (ip), vehicle: saline) turn out when `CN(CO)c1nc(N(C)CO)nc(N(C)CO)n1` was run?
**A.** Its survivor count is 0 of 5.

**Q.** What about the survivor count (dose: 50.0 mg/kg/injection, schedule: Q01DX008 (ip), vehicle: saline) of the same compound?
**A.** Its survivor count is 0 of 5.

**Q.** What about the survivor count (dose: 100.0 mg/kg/injection, schedule: Q01DX008 (ip), vehicle: saline) of the same compound?
**A.** Its survivor count is 0 of 5.

**Q.** What about the survivor count (dose: 200.0 mg/kg/injection, schedule: Q01DX008 (ip), vehicle: saline) of the same compound?
**A.** The survivor count was 0 of 5.

**Q.** And the survivor count (dose: 200.0 mg/kg/injection, schedule: Q01DX010 (sc), vehicle: suspension in saline)?
**A.** The survivor count was 2 of 6 on day 11.

**Q.** What about the survivor count (dose: 300.0 mg/kg/injection, schedule: Q04DX003 (sc), vehicle: saline) of the same compound?
**A.** Its survivor count is 2 of 6 on day 11.

**Q.** What about the survivor count (dose: 300.0 mg/kg/injection, schedule: Q04DX003 (sc), vehicle: suspension in saline) of the same compound?
**A.** The survivor count was 1 of 6 on day 11.

**Q.** And the survivor count (dose: 400.0 mg/kg/injection, schedule: Q01DX010 (sc), vehicle: suspension in saline)?
**A.** Its survivor count is 0 of 6 on day 11.

**Q.** And the survivor count (dose: 600.0 mg/kg/injection, schedule: Q04DX003 (sc), vehicle: saline)?
**A.** The survivor count was 0 of 6 on day 11 and 3 of 6 on day 11.

**Q.** And the survivor count (dose: 600.0 mg/kg/injection, schedule: Q04DX003 (sc), vehicle: suspension in saline)?
**A.** The survivor count was 0 of 6 on day 11 and 1 of 6 on day 11.

**Q.** `N[C@H](C(=O)O)[C@@H]1CC(Cl)=NO1` was tested. Which survivor count [6] did it give?
**A.** Its survivor count is 0 of 3 on day 11.

**Q.** What about the survivor count [7] of the same compound?
**A.** Its survivor count is 0 of 3 on day 11.

**Q.** And the survivor count (dose: 32.0 mg/kg/injection, schedule: Q02DX005 (sc), vehicle: saline)?
**A.** The survivor count was 1 of 3 on day 11.

**Q.** What about the survivor count (dose: 64.0 mg/kg/injection, schedule: Q02DX005 (sc), vehicle: saline) of the same compound?
**A.** The survivor count was 0 of 2 on day 11.

**Q.** What about the survivor count (dose: 128.0 mg/kg/injection, schedule: Q02DX005 (sc), vehicle: saline) of the same compound?
**A.** Its survivor count is 0 of 2 on day 11.

**Q.** Which T/C (dose: 2400.0 mg/kg/injection, schedule: Q04DX003 (sc), vehicle: suspension in saline) does the source give for `COCC(O)Cn1ccnc1[N+](=O)[O-]` (stereo not drawn) here?
**A.** Its T/C is 133 % of control.

**Q.** What does the source list for `C=CS(C=C)=NS(=O)(=O)c1ccc(C)cc1`?
**A.** survivor count (dose: 75.0 mg/kg/injection, schedule: Q04DX003 (sc), vehicle: Klucel (hydroxypropylcellulose) (HPC)): 0 of 6 on day 11; survivor count [5]: 0 of 6 on day 11

**Q.** For `Cc1cc(N(CC(C)Br)CC(C)Br)ccc1N=Nc1ccccc1C(=O)O` (stereo not drawn), which survivor count (dose: 25.0 mg/kg/injection, schedule: Q01DX010 (sc), vehicle: saline with Tween-80) is on record?
**A.** The survivor count was 0 of 3 on day 11.
